Binding data for one molecule are collected here from publication PMC12435268.

No constants are given. Whether binding was seen depends on the method and setting. Binding seen in cells or lysates may run through a third protein. A result given as binding can be weak or reduced; the word gives no strength.

The test addresses NF-κB. As to the kind of experiment: co-IP; cells lysed; supernatants incubated overnight at 4 °C with specific antibodies; Protein A/G magnetic beads 1 h at room temperature; three washes; Western blot. On the technique in general: In western blotting, separated proteins are transferred to a membrane and probed.

B1: ANXA6 (protein, UniProt P08133 1-673)
chain: MAKPAQGAKYRGSIHDFPGFDPNQDAEALYTAMKGFGSDKEAILDIITSRSNRQRQEVCQSYKSLYGKDLIADLKYELTGKFERLIVGLMRPPAYCDAKEIKDAISGIGTDEKCLIEILASRTNEQMHQLVAAYKDAYERDLEADIIGDTSGHFQKMLVVLLQGTREEDDVVSEDLVQQDVQDLYEAGELKWGTDEAQFIYILGNRSKQHLRLVFDEYLKTTGKPIEASIRGELSGDFEKLMLAVVKCIRSTPEYFAERLFKAMKGLGTRDNTLIRIMVSRSELDMLDIREIFRTKYEKSLYSMIKNDTSGEYKKTLLKLSGGDDDAAGQFFPEAAQVAYQMWELSAVARVELKGTVRPANDFNPDADAKALRKAMKGLGTDEDTIIDIITHRSNVQRQQIRQTFKSHFGRDLMTDLKSEISGDLARLILGLMMPPAHYDAKQLKKAMEGAGTDEKALIEILATRTNAEIRAINEAYKEDYHKSLEDALSSDTSGHFRRILISLATGHREEGGENLDQAREDAQVAAEILEIADTPSGDKTSLETRFMTILCTRSYPHLRRVFQEFIKMTNYDVEHTIKKEMSGDVRDAFVAIVQSVKNKPLFFADKLYKSMKGAGTDEKTLTRIMVSRSEIDLLNIRREFIEKYDKSLHQAIEGDTSGDFLKALLALCGGED
With B1, the binding result is recorded as “binds”.
